Among the data in PubChem BioAssay AID2685 (National Center for Advancing Translational Sciences (NCATS), 2010) are cell number change and AC50 values, retold here.

The assay is described as follows: qHTS Assay for Lipid Storage Modulators in Drosophila S3 Cells.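 For cell number change: cells counted by Cell Tracker Red CMTPX staining in the red channel.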 The conditions noted are these: BODIPY lipid droplet fluorescence, 18-24 h; for cell number change: measured here: cell count max response, cells fed with added oleic acid. Put shortly: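 Drosophila S3 cells loaded with oleic acid (400 uM, as added) and compounds at several concentrations; lipid droplets imaged by 488-nm laser-scanning cytometry, 500–530 nm intensity and object ratio to cell channel. Percent activity normalized to 20 uM Triacsin C.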
In general terms: In qHTS, concentration-response curves come from the screen itself.

[1] abbreviates: measured here: lipid fluorescence (Fed channel) AC50, cells fed with added oleic acid.
Setting [2] is: measured here: cell number channel AC50, cells fed with added oleic acid.

Structures are written as SMILES. The list shows a part of the results. Shown are side measurements of this screen, not its main read-out; they come without a call. Most of these compounds were active or inconclusive in the main read-out, so they are no random draw. The note in brackets gives the kind of curve behind each potency; many fits are weak.

On to `COc1ccc(-c2ccc(C#N)c(OC(=O)c3c(Cl)cccc3Cl)n2)cc1`, for which the cell number change is -11.5%. Also, the AC50 under setting [1] is 18.4 µM [rising, single point].

As for `CCOc1ccc(Cn2c(=O)oc3ccc(C)cc32)cc1OC`, the cell number change was found to be 65.1%. Moreover, the AC50 under setting [2] was 20.6 µM [rising, single point].

Take `O=C(NC(=S)NCc1ccccc1)c1ccccc1`: the AC50 runs as follows: under setting [2], 3.66 µM [rising, single point]; under setting [1], 4.11 µM [rising, single point].

As for `CS(=O)(=O)Cc1cccc(C(=O)NC2CCSc3ccccc32)c1` (centres undefined), the cell number change was found to be 3.78%. In addition, the AC50 under setting [1] is 6.51 µM [rising, partial curve, poor fit].

For the molecule `N#C/C(=C\c1c(N2CCOCC2)nc2ccccn2c1=O)S(=O)(=O)c1ccccc1`, the cell number change was 25.4%.

Regarding `Cc1c(N=C2C=CC(=O)c3ccccc32)c(=O)n(-c2ccccc2)n1C`, the cell number change was -60.2%. Further, under setting [2], the AC50 was 14.6 µM [falling, partial curve]. Further, the half-maximal activity concentration (AC50) under setting [1] is 20.6 µM [falling, single point].

Turning to `NC(=O)c1nc[nH]c1C(=O)Nc1cccc(C(F)(F)F)c1`, the cell number change was 5.17%.

For `CCCCNC(=O)CN1C(=O)NC2NC(=O)NC21` (centres undefined), the cell number change was -47.6%. Moreover, the AC50 under setting [2] is 1.03 µM [falling, full curve, poor fit]. For the same molecule, the AC50 under setting [1] was 1.16 µM [falling, full curve].

Take `CCc1c(O)c(/C(C)=N\O)c(=O)n(-c2ccccc2)c1-c1ccccc1`: the cell number change stood at 32%. Also, the half-maximal activity concentration (AC50) under setting [2] was 29.1 µM [rising, single point]. In addition, the concentration at half-maximal activity (AC50) under setting [1] is 29.1 µM [rising, single point].

As for `O=C1NC(=S)S/C1=C\c1ccc(SCc2ccco2)o1`, the AC50 under setting [1] is 4.11 µM [falling, full curve, poor fit].

Regarding `O=C(O)c1cc(S(=O)(=O)NC(CO)C(O)c2ccc([N+](=O)[O-])cc2)ccc1Br` (centres undefined), the cell number change was -15.2%.

Regarding `COc1ccc(-c2nc(N)ncc2-c2ccc(OC)c(OC)c2)c(O)c1`, the cell number change turned out to be 30.5%. In addition, the AC50 under setting [2] was 32.6 µM [rising, single point].

Regarding `CCOC(=O)c1c(NC(=O)COc2ncnc3ccccc23)sc(C(C)=O)c1C`, the cell number change turned out to be 13.4%. In addition, the AC50 under setting [1] was 2.06 µM [rising, partial curve].

Regarding `CCCCn1c(N)c(N(CCC(C)C)C(=O)c2ccc3ccccc3c2)c(=O)[nH]c1=O`, the cell number change was -16.6%.

`Cc1cc(NC(=O)c2ccco2)sc1C`: the cell number change came out at 23.4%. Moreover, the AC50 under setting [1] is 29.1 µM [rising, single point].

For `CC1CN(CCS(=O)(=O)c2cc(Cl)ccc2Cl)CC(C)O1` (centres undefined), the cell number change turned out to be 12.2%.

For `O=C(NNC1CC(=O)N(c2ccccc2)C1=O)c1ccc(COc2ccccc2Cl)o1` (centres undefined), the cell number change was -16.7%. Further, the AC50 under setting [1] is 29.1 µM [rising, single point].

On to `CCCCN1C(=O)C(=O)N(CC(=O)N2CCN(c3ccccc3)CC2)C1=O`, for which the cell number change was -28.5%. The AC50 under setting [2] was 0.0103 µM [falling, full curve, poor fit].

For `COc1ccccc1CNC(=O)C(Cc1c[nH]c2ccccc12)NC(=O)OCc1ccccc1` (centres undefined), the cell number change was determined as 6.96%.

In the case of `COc1cccc(Cn2c(Oc3cccc(C)c3)nc3c2c(=O)n(C)c(=O)n3C)c1`, the cell number change is -18.3%. In addition, the concentration at half-maximal activity (AC50) under setting [1] is 0.731 µM [rising, partial curve].

For the molecule `CC(C)(C)n1cnc2cc(NS(=O)(=O)c3ccc(Br)cc3)ccc21`, the cell number change is 78.9%. Also, the half-maximal activity concentration (AC50) under setting [2] is 2.59 µM [rising, full curve]. In addition, the AC50 under setting [1] is 2.59 µM [rising, full curve].

Consider `COc1ccccc1C(=O)Nc1nnc(S(=O)(=O)N2CCN(c3ccc(F)cc3)CC2)s1`, for which the cell number change is -10.1%. For the same molecule, the AC50 under setting [1] was 18.4 µM [rising, partial curve].

With `CS(=O)(=O)N1CCN(c2ccccc2F)CC1`, the half-maximal activity concentration (AC50) under setting [2] was 0.731 µM [falling, partial curve, poor fit] and the AC50 under setting [1] was 11.6 µM [falling, partial curve].

As to `CCOc1cc(/C=N/NC(N)=O)cc(Br)c1OCC(=O)Nc1ccccc1C`, the cell number change stood at 47.2%. Further, the AC50 under setting [2] is 10.3 µM [rising, single point]. Besides, under setting [1], the AC50 was 5.17 µM [rising, full curve].

For `Cc1ccc(-c2cc(-c3ccc(Cl)cc3)c(C#N)c(N)n2)o1`, the cell number change is -33.9%. Further, under setting [2], the AC50 was 18.4 µM [falling, single point].

Consider `CCOC(=O)N1CCN(CCC(=O)Nc2ccc(OC)cc2)CC1`, for which the cell number change is -8.86%. Also, the AC50 under setting [1] is 0.411 µM [falling, partial curve, poor fit].

Consider `COc1ccc(NS(=O)(=O)c2cccc(C(=O)NNC(=O)c3cncc(Br)c3)c2)cc1`, for which the cell number change came to 31%. Also, the half-maximal activity concentration (AC50) under setting [2] is 32.6 µM [rising, single point].

In the case of `CC(=O)Oc1ccc(NC(=O)Cc2ccccc2)c(C(=O)O)c1`, the cell number change was -30.1%. Under setting [2], the AC50 is 2.24 µM [falling, full curve, poor fit]. In addition, under setting [1], the concentration at half-maximal activity (AC50) is 7.94 µM [falling, partial curve].

As for `CCOc1ccc(N(Cc2cc3ccc(C)cc3[nH]c2=O)C(=O)COC)cc1`, the cell number change was -29.3%. In addition, under setting [1], the AC50 is 0.731 µM [falling, single point].

Regarding `CC(C)(C)c1ccc(C(=O)NCC(=O)OCC(=O)c2ccc3c(c2)-c2ccccc2C3)cc1`, the cell number change is -10.1%. Besides, the AC50 under setting [1] is 0.92 µM [falling, full curve, poor fit].

In the case of `Cc1cc(Br)c(NC(=O)CCNC(=O)OCc2ccccc2)cc1C`, the cell number change was -18.6%. Besides, the half-maximal activity concentration (AC50) under setting [1] was 3.66 µM [falling, full curve, poor fit].

Consider `CC(=O)c1cccc(NC(=O)c2oc(C)nc2C)c1`, for which the cell number change was -28.2%. Under setting [1], the AC50 is 29.1 µM [falling, single point].

In the case of `NNC(=O)C(Cc1cnc[nH]1)NC(=O)OCc1ccccc1` (centres undefined), the cell number change was found to be 19.7%. Further, the AC50 under setting [1] is 29.1 µM [rising, single point].

Take `COC(=O)c1ccc2c(=O)n(CCCCCC(=O)NCc3ccccn3)c(=O)[nH]c2c1`: the cell number change was 136%. In addition, the concentration at half-maximal activity (AC50) under setting [2] was 29.1 µM [rising, single point]. For the same molecule, the AC50 under setting [1] is 0.116 µM [rising, full curve].

Turning to `CCn1c(O)c(N=NC(=O)C2C(=O)NCC2c2ccccc2)c2ccccc21` (centres undefined), the cell number change was determined as 7.82%. Further, the AC50 under setting [1] is 0.58 µM [rising, full curve, poor fit].

`COc1ccc(N2CC(C(=O)NCCC3=CCCCC3)CC2=O)cc1` (centres undefined): the cell number change is -0.437%. The AC50 under setting [1] was 6.51 µM [falling, single point].

Turning to `c1ccc(CSc2nnnn2-c2ccccc2)cc1`, the cell number change amounted to 128%. In addition, the AC50 under setting [1] was 0.58 µM [falling, single point].

For orientation: AC50 means the concentration at which the activity in the assay is half-maximal. A lower AC50 goes with activity at low concentration.
